No constants are given. Whether binding was seen depends on the method and setting. Binding calls can cover weak binding; strength is not graded here.

Assay in all cases: two-hybrid; Matchmaker system; array of yeast with C. trachomatis ORFs in pGAD424 (Gal4AD) mated against yeast with ORFs in pGBT9 (Gal4DBD); growth of diploids on SC media lacking histidine or adenine over 4 days
One assay has as its target T1, Ct584 (C. trachomatis) (UniProt O84588).
T1 sequence: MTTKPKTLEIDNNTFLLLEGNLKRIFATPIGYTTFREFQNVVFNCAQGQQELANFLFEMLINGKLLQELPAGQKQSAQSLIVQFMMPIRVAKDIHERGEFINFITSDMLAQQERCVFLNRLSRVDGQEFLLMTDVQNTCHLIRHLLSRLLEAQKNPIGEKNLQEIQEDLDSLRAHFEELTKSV

In another assay the target is T2, Ct663 (C. trachomatis) (UniProt O84670).
T2 sequence: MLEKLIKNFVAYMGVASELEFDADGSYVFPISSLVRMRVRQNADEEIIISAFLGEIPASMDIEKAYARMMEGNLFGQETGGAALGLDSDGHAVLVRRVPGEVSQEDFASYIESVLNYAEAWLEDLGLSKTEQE

The target of the next assay is CdsQ (C. trachomatis).

For the molecule CdsF (C. trachomatis), in the assay with Ct584 (C. trachomatis), the binding result is listed as “binds”.

Regarding Scc1 (C. trachomatis), in the assay with Ct663 (C. trachomatis), the binding result is given as “binds”.

B1: Ct677 (protein, UniProt O84684 1-179)
chain: MTLASAEKEMVGVLTFFQKETRGFRTGKAHPALVETVTVEVYGTTMRLSDIASISVSDMRQLLLSPYDAGTVSAISKGILAANLNLQPIVEGATVRINVPEPTEEYRREVIKQLKRKSEEAKVAIRNIRRTFNDRLKKDDNLTEDAVKSLEKKIQELTDKFCKQIEELAKQKEAELATV
As for B1, the binding entry with CdsQ (C. trachomatis) is listed as “binds”.

(Values after article PMC2734247, “The Chlamydia Type III Secretion System C-ring Engages a Chaperone-Effector Protein Complex” (PLoS Pathogens, 2009).)
